Reference: publication PMC3460857
Results are given in words; binding and its absence hold for the method and conditions named. In cells and extracts the contact can be indirect. For some assays here: A result given as binding can be weak or reduced; the word gives no strength.

Experiments:
[1] = molecular target: full-length LqfRa fused at its C-terminus to GFP (LqfRa^FL-GFP) (Drosophila); experiment: co-IP; GFP fusion precipitated from embryo extracts with GFP-trapA (Chromotek), 2 hrs at 4°C; lysis buffer 1% NP40, 0.5% deoxycholate, 1 mM DTT, 150 mM NaCl, 50 mM Tris pH 8.0; washes in lysis buffer and 500 mM NaCl; partners detected by Western blot
[2] = molecular target: ENTH domain only of LqfR fused to GFP (LqfR^ENTH-GFP) (Drosophila); experiment: as above

B1: α-catenin (protein, UniProt P35220 1-917)
chain: MLKPDKMGTLTDFGQIALKWDPKNLEIRTMSVEKTLEPLVLQVTTLVNTKGPSKKKKGKSKRASALVAAVEKATENFIQKGEQIAYENPDITQEMLTAVDEVKKTGDAMSIAAREFSEDPCSSLKRGNMVRAARNLLSAVTRLLILADMVDVHLLLKSLHIVEDDLNKLKNASSQDELMDNMRQFGRNAGELIKQAAKRQQELKDPQLRDDLAAARAMLKKHSTMLLTASKVYVRHPELDLAKVNRDFILKQVCDAVNTISDVAQGKSSQPTDIYSGAGELAAALDDFDEGIVMDPMTYSEKRSRQLLEERLESIISAAALMADADCTRDERRERIVAECNAVRQALQDLLSEYMSNMSQKDNSPGLSRAIDQMCRKTRDLRRQLRKAVVDHVSDSFLETTTPLLDLIEAAKSGNEKKVREKSEIFTKHAEKLVEVANLVCSMSNNEDGVKMVRYAAAQIESLCPQVINAASILTVRPNSKVAQENMTTYRQAWEVQVRILTEAVDDITTIDDFLAVSENHILEDVNKCVMALQVGDARDLRATAGAIQGRSSRVCNVVEAEMDNYEPCIYTKRVLEAVKVLRDQVMMKFDQRVGAAVGALSNNSNKDVDENDFIDASRLVYDGVREIRRAVLMNRSSEDLDTDTEFEPVEDLTLETRSRSSAHTGDQTVDEYPDISGICTAREAMRKMTEEDKQKIAQQVELFRREKLTFDSEVAKWDDTGNDIIFLAKHMCMIMMEMTDFTRGRGPLKTTMDVINAAKKISEAGTKLDKLTREIAEQCPESSTKKDLLAYLQRIALYCHQIQITSKVKADVQNISGELIVSGLDSATSLIQAAKNLMNAVVLTVKYSYVASTKYTRQGTVSSPIVVWKMKAPEKKPLVRPEKPEEVRAKVRKGSQKKVQNPIHALSEFQSPADAV
For B1, the binding [1] was “binds” and the binding [2] was “no binding”.
